Test results taken from patent US20200317642A1, “AMINE-SUBSTITUTED HETEROCYCLIC COMPOUNDS AS EHMT2 INHIBITORS AND DERIVATIVES THEREOF” (Epizyme, Inc., priority 2017, published 2020).
The match of structure and compound is tentative.

Chains of the proteins cited; added tags and fusions are not shown. Residues count along the entry.
UniProt Q96KQ7, 913-1193 limits assumed: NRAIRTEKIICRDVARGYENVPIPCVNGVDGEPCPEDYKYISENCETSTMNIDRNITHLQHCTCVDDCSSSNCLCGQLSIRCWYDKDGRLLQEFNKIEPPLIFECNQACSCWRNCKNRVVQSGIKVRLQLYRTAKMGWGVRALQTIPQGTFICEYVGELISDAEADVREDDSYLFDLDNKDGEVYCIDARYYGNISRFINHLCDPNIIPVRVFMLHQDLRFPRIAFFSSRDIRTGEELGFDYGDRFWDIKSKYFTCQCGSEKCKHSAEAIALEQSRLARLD
UniProt Q9H9B1, whole entry: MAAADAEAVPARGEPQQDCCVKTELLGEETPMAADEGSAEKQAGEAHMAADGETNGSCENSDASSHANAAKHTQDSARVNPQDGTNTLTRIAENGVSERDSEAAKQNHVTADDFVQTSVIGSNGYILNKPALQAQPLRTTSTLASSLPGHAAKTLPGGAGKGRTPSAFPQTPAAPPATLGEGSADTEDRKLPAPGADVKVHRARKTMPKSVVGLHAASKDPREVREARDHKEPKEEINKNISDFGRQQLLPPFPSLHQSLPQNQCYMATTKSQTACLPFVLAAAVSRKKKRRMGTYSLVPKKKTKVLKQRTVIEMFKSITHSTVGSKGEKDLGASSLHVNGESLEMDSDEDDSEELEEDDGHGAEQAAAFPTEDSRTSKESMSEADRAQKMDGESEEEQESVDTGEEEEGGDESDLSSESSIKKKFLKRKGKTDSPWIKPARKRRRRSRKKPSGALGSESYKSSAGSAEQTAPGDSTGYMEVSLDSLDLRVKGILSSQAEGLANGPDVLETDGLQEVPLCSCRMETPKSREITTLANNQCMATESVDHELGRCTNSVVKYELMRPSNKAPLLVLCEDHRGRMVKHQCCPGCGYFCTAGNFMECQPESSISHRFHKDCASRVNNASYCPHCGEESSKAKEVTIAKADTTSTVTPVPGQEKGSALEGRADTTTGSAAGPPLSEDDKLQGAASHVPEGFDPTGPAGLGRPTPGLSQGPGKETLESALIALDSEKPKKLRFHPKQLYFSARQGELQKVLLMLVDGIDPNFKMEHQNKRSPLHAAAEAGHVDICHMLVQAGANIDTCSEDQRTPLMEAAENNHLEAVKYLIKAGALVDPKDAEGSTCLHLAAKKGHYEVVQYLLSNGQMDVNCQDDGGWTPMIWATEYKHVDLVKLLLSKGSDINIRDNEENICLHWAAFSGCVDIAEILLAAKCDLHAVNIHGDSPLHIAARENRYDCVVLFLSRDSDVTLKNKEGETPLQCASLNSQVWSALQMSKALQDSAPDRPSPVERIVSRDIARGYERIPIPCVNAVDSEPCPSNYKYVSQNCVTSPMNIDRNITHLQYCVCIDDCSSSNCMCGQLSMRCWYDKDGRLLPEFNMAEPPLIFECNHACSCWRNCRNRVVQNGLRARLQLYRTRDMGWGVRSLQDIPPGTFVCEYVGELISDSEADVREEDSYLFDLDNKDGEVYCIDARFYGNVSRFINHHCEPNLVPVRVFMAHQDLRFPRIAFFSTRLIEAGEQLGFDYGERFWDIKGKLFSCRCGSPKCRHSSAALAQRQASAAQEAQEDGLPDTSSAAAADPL

Legend:
human EHMT2 913-1193 = human EHMT2 913-1193 (Homo sapiens, UniProt Q96KQ7); assay: EHMT2 enzyme assay on histone peptide substrate; settings: read-out: EHMT2 PEP (IC50 μM); Table 3; histone H3 1-15 peptide, balanced conditions
Source text: Recombinant purified human EHMT2 913-1193 ([…]) synthesized by Viva was used for all experiments. Biotinylated histone peptides were synthesized by Biopeptide and HPLC-purified to >95% purity. Streptavidin Flashplates and seals were purchased from PerkinElmer and 384 Well V-bottom Polypropylene Plates were from Greiner. ^3H-labeled S-adenosylmethionine (^3H-SAM) was obtained from American Radiolabeled Chemicals with a specific activity of 80 Ci/mmol. Unlabeled SAM and S-adenosylhomocysteine (SAH) were obtained from American Radiolabeled Chemicals and Sigma-Aldrich respectively. Flashplates were washed in a Biotek ELx-405 with 0.1% Tween. 384-well Flashplates and 96-well filter binding plates were read on a TopCount microplate reader (PerkinElmer). Compound serial dilutions were performed on a Freedom EVO (Tecan) and spotted into assay plates using a Thermo Scientific Matrix PlateMate (Thermo Scientific). Reagent cocktails were added by Multidrop Combi (Thermo Scientific).
10-point curves of test compounds were made on a Freedom EVO (Tecan) using serial 3-fold dilutions in DMSO, beginning at 2.5 mM (final top concentration of compound was 50 t and the DMSO was 2%). […] 384-well Flashplates were read on a TopCount microplate reader (PerkinElmer).

[1] = tested on: H3K9me2 in MDA-MB-231 cells; assay: MDA-MB-231 H3K9me2 in-cell western assay (EHMT2 ICW); settings: read-out: EHMT2 ICW (IC50 μM), Table 3
Source text: MDA-MB-231 cell line was purchased from ATCC (Manassas, Va., USA). RPMI/Glutamax medium, Penicillin-Streptomycin, Heat Inactivated Fetal Bovine Serum, and D-PBS were purchased from Life Technologies (Grand Island, N.Y., USA). Odyssey blocking buffer, 800 CW goat anti-mouse IgG (H+L) antibody, and Licor Odyssey Infrared Scanner were purchased from Licor Biosciences, Lincoln, Nebr., USA. H3K9me2 mouse monoclonal antibody (Cat #1220) was purchased from Abcam (Cambridge, Mass., USA). 16% Paraformaldehyde was purchased from Electron Microscopy Sciences, Hatfield, Pa., USA). […]
Compound (100 nL) was added directly to 384-well cell plate. […] Plates were allowed to dry at room temperature then imaged on a Licor Odyssey Infrared Scanner (Licor Biosciences) which measured integrated intensity at 700 nm and 800 nm wavelengths. […]
First, the ratio for each well was determined by: […]
The average of the ratio values for each well was calculated and used to determine the percent inhibition for each test well in the plate. […] Percent inhibition was calculated as: […]
IC50 curves were generated using triplicate wells per concentration of compound. […] IC50 values were calculated using a non-linear regression (variable slope-four parameter fit model) with by the following formula: […]

EHMT1 = EHMT1 (Homo sapiens, UniProt Q9H9B1); assay: EHMT1 PEP enzyme assay; assay type: biochemical; settings: read-out: EHMT1 PEP (IC50 μM); Table 3

Measured: IC50

CNc1cc(C)nc(Nc2ccc(C)c(CNCCN3CCCC3)c2)n1 [22]
> 10 µM: all assays above
